The nature of this data set: peptide synthesis. Particulars: coupling step.

These results are taken from patent US20060128613A1 (The Procter & Gamble Company, priority 2003, published 2006).

Boc-(carba-4-Cl—Ff)-R(Pbf)W—OMe displayed a step yield of 98%.
Boc-YfRW—OCH3: the step yield is on record as 95%.
